The values below come from article PMC4510591.

The chains behind the UniProt entries cited, without tags or fusion partners.
UniProt P37276: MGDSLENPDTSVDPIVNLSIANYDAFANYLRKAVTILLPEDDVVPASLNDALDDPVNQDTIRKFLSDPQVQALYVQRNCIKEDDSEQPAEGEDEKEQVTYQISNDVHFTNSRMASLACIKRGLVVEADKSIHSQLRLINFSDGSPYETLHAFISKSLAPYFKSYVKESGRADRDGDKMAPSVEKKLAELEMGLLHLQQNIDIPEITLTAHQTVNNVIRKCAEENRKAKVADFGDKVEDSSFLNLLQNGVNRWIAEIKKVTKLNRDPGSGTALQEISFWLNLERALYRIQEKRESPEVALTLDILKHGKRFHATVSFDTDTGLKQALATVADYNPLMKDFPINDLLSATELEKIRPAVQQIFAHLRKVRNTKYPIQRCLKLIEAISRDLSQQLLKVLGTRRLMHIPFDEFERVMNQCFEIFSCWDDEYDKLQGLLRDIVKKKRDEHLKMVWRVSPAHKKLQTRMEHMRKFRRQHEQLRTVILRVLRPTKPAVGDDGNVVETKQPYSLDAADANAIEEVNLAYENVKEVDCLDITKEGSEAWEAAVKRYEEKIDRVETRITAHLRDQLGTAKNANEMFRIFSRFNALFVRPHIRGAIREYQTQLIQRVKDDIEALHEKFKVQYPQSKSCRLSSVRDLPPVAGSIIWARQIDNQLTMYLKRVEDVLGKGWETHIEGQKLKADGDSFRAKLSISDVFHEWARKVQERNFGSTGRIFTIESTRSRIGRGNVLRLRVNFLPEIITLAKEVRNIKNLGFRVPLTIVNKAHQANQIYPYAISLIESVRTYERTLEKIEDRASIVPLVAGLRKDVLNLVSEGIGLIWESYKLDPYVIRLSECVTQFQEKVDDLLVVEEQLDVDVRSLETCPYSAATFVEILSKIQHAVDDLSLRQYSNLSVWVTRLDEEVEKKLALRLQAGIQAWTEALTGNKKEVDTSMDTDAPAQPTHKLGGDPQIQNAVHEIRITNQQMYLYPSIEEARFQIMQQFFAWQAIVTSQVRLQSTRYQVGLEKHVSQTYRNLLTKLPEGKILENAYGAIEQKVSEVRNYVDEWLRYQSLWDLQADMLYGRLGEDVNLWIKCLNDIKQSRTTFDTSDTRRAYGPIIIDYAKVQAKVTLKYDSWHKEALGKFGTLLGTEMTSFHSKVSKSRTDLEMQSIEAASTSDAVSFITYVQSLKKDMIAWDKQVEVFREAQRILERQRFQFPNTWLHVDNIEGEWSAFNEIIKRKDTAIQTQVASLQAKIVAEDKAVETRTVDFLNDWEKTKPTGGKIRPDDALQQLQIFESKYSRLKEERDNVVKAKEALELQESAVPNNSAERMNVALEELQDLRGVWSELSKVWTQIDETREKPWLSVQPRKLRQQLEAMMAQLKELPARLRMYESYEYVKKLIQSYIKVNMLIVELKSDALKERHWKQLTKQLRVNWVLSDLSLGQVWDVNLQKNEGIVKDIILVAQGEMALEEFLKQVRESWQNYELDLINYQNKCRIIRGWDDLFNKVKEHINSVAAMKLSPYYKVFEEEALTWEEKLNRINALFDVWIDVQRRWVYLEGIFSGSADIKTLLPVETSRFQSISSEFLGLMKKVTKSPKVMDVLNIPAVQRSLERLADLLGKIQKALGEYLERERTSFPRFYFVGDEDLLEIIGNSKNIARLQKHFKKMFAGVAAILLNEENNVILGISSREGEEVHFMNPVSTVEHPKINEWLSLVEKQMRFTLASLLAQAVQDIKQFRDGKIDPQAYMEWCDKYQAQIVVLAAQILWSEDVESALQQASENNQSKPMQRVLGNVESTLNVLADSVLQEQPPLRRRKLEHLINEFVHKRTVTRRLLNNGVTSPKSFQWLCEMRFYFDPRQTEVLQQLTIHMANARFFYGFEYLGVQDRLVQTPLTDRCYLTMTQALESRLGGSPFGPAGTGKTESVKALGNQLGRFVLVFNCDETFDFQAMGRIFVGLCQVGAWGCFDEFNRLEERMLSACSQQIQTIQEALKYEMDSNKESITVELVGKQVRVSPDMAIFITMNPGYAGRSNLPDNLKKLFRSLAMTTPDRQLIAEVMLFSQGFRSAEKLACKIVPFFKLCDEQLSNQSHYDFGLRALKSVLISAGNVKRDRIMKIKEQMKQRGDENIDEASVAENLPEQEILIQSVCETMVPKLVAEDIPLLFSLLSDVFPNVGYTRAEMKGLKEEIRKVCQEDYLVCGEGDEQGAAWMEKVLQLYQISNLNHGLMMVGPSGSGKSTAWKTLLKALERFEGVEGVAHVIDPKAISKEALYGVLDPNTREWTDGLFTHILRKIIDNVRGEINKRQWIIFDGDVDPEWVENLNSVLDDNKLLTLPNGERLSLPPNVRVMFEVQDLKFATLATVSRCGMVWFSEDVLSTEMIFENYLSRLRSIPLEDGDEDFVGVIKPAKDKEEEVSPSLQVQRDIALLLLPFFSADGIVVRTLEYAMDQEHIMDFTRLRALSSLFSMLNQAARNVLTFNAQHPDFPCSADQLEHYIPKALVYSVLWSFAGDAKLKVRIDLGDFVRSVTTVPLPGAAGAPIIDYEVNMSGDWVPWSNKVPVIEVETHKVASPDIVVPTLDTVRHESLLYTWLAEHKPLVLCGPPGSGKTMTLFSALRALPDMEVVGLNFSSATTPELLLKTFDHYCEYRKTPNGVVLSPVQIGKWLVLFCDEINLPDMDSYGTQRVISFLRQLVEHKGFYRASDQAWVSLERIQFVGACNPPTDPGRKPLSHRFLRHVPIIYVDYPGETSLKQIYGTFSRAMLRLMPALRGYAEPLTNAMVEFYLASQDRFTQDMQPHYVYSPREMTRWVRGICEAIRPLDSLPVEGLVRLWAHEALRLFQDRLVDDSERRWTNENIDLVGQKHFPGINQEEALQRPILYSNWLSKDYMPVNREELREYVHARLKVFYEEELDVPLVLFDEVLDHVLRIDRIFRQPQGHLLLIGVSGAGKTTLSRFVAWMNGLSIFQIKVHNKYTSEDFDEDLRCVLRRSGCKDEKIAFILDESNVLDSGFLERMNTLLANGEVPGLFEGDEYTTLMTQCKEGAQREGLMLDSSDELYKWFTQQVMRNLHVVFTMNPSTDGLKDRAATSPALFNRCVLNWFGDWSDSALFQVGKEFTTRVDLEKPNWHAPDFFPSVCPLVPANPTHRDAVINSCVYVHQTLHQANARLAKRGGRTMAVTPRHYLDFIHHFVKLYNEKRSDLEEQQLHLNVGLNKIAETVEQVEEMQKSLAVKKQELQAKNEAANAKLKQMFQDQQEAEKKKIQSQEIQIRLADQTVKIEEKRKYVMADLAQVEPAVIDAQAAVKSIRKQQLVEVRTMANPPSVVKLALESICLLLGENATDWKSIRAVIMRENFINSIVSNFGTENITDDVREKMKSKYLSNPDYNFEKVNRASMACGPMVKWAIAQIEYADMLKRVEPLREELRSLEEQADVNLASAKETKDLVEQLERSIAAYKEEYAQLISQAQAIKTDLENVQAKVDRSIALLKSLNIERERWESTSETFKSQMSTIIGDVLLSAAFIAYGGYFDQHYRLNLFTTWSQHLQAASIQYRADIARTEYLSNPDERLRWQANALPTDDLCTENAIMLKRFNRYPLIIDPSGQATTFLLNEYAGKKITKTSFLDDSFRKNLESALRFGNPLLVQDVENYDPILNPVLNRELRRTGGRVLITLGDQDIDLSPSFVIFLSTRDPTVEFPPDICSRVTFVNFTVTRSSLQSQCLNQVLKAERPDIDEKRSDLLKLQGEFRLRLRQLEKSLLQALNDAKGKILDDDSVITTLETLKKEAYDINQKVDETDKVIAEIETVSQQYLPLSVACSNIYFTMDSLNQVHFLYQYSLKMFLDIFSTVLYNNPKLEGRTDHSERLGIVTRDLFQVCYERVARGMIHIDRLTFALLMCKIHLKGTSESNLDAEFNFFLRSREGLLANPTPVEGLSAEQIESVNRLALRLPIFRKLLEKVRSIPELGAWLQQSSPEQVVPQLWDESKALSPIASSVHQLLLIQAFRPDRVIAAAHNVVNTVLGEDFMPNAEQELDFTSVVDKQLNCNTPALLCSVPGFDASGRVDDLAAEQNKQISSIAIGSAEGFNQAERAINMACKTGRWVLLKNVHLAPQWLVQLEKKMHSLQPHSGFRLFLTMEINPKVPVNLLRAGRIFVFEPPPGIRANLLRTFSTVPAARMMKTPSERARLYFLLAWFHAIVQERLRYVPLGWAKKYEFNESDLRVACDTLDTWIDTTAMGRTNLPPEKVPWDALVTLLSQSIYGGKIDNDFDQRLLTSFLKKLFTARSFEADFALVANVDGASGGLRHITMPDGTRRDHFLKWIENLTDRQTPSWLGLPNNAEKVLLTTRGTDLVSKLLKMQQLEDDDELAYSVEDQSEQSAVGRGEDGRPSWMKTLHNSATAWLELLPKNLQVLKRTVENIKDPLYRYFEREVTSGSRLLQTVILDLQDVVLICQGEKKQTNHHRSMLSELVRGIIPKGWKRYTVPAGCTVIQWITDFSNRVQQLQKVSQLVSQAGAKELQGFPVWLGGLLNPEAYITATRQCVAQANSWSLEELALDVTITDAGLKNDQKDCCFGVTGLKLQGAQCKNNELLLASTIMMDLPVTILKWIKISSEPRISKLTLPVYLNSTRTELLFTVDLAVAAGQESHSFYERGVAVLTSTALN
UniProt Q24117: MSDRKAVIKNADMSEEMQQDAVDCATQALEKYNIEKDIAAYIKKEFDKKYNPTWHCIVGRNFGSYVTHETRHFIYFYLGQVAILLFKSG

No constants are given. Whether binding was seen depends on the method and setting. Binding seen in cells or lysates may run through a third protein. Some binding calls cover weakened binding; strength is not graded here. For some of these results: Sequences can lack the tags named with a protein.

For assay [1], the target named is T1, Spindle-F (Spn-F), endogenous in ovary (Drosophila (endogenous in ovary)) (UniProt Q9V9Y9).
T1 sequence: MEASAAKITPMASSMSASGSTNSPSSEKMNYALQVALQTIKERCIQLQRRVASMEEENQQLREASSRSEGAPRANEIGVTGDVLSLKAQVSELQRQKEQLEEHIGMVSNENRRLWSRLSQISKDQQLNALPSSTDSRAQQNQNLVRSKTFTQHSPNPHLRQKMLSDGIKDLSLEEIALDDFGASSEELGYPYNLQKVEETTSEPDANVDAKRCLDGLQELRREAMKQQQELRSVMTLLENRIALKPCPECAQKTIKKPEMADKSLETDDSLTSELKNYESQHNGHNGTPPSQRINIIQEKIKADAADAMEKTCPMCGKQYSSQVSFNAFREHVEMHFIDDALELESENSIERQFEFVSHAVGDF
Briefly: co-IP; ovary lysates of adult females in lysis buffer; rabbit anti-Spn-F (rabbit anti-GFP as control IgG), 1 h, then Protein G-Sepharose 1 h at 4°C.

Assay [2] addresses T2, GST-C1 (GST fusion of the Spn-F C1 region) (Drosophila) (UniProt Q9V9Y9).
T2 sequence: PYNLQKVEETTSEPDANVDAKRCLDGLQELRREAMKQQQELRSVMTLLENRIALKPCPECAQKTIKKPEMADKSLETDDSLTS
Briefly: pull-down; 20 µg purified GST-fusion Spn-F fragment added to ovary lysate, overnight at 4°C; Glutathione-Sepharose 4B 2 h; three rapid washes with lysis buffer; blot for DHC; only the target purified.

Assay [3] has as its target T3, Spn-F C1 construct (amino acids 191-273) (Drosophila) (UniProt Q9V9Y9).
T3 sequence: T2 sequence
Briefly: co-IP; transfected S2 cells lysed in 50 mM Tris-HCl pH 7.5, 150 mM NaCl, 0.5% Triton X-100, 10% glycerol, 1 mM EDTA, 1 mM DTT; anti-HA, anti-GFP or anti-myc beads, 2 h at 4°C.

In assay [4] the target is T4, Spindle-F (Spn-F), overexpressed in S2 cells (Drosophila) (UniProt Q9V9Y9).
T4 sequence: T1 sequence
The assay is described as above.

On to “Cytoplasmic dynein heavy chain (DHC; Dhc64C), endogenous in ovary (from UniProt P37276 1-4639)”, for which the binding entry is “binds” in assay [1] and “no binding (tested: 20 µg GST-fusion protein)” in assay [2].
For the substance “Cut up (Ctp)/dynein light chain (LC8), myc-tagged (from UniProt Q24117 1-89)”, the binding result in assay [3] and in assay [4] was “binds” throughout.
